The values below come from PMC5488176.

This experiment has as its target MTB, yeast two-hybrid fusion (Arabidopsis thaliana). Briefly: two-hybrid; yeast two-hybrid, fusions to activation domain (pDEST22) and binding domain (pDEST32); growth on media lacking histidine with 3-AT (-LTH) or lacking adenine (-LTA), recorded after 4 d; three technical and three biological replicates.

Results are given in words; binding and its absence hold for the method and conditions named. Binding can be weak; no strength is given. Tags and fused reporters may be left off the sequences shown.

B1: HAKAI, yeast two-hybrid fusion (protein, UniProt Q9LFC0 1-360)
chain: MLQIRLRRDSPTETGNGARPSPTETVTVACPDHLVLADLPVAKGIGSVTPTTVIKPVGRRSRRQLGERVHFCVRCDFPIAIYGRLIPCDHAFCLECARSDSICYLCDERIQKIQTIKMMEGIFICAAPHCLRSFLKKLDFEAHVHDLHGSLLQADAEKEDGNQSDVQSTMQQSSASESTLRAPLRSQLQQSRELNRSASFAKSQSGFSQVQNYPPDSDNSRPPGFETASPKPGIRFPDYPQPMNLMQPPSLPVPMNQNPGLPQQFGFPSYPTTESGSSQQFFNGAQYEMTRTESGGSEQSSLLGYPPPSPMTNLNFQGSYPPPSWNPGMAPPHTTQQVNRGRDGQSFGWPQENRDGFGQE
On to B1, for which the binding entry is given as “binds weakly”.
